{
  "source": "PubChem BioAssay AID1347076",
  "about": "(National Center for Advancing Translational Sciences (NCATS), 2019)",
  "note": "Among all 400,000 compounds or so, about 13,000 (3.2%) were called active. The inconclusive results got no clear call from the source; some entries with a clear call stand among them for comparison. Calls come from the whole dose curve; as a rule, active = well fitted cell-killing curve with a large enough effect; inconclusive = small, poorly fitted or top-dose-only effect, or effect the other way; inactive = flat fitted curve, though single readings scatter. Potencies of inconclusive entries are doubtful fits and often do not repeat. Potency is the fitted concentration of half-maximal effect.",
  "data": [
    {"experiment": "qHTS assay for MDR1-selective chemotherapeutics: Primary screen using the drug-selected MDR subline cells KB-V1; note: nearly all actives have a fitted effect of over 60% in size", "conditions": "KB-V1 MDR cells viability, CellTiter-Glo, 72 h; series mostly up to 46.1 µM", "how_it_was_run": "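Drug-selected KB-V1 cells, grown in DMEM lacking phenol red with 10% FBS, receive compound titrations; after three days at 37 degrees C, surviving cell ATP is quantified by CellTiter-Glo luminescence and responses normalized and curve-fitted.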", "values": [
      {"smiles": "COc1ccccc1N1CCN(C(=O)c2cccc(S(=O)(=O)N3c4ccccc4CC3C)c2)CC1", "note": "(configuration not stated)", "Potency": "active: 3.66 µM"},
      {"smiles": "COc1cc(OC)cc(-c2nnc(SCC(=O)N3CCC(C)CC3)o2)c1", "Potency": "inactive"},
      {"smiles": "Cc1cccn2c(=O)c(/C=C(\\C#N)C(N)=O)c(N3CCN(c4cccc(Cl)c4)CC3)nc12", "Potency": "inactive"},
      {"smiles": "O=C(NCCS(=O)(=O)NC1CCCCC1)c1ccccc1", "Potency": "inconclusive: 23.1 µM [cytotoxic, single point]"},
      {"smiles": "Cc1ccc(-c2onc(C)c2C)cc1S(=O)(=O)N1CC(C)Oc2ccccc21", "note": "(configuration not stated)", "Potency": "inconclusive: 25.9 µM [cytotoxic, single point]"},
      {"smiles": "Cc1csc(N(C)C(=O)CSc2nnc(COc3cccc4ccccc34)o2)n1", "Potency": "inconclusive: 29.1 µM [cytotoxic, single point]"},
      {"smiles": "S=C(NCCCN1CCOCC1)NCCCN1CCOCC1", "Potency": "inactive"},
      {"smiles": "CC(C)c1ccc(Nc2cc(C(=O)NCCc3ccccc3)c3ccccc3n2)cc1", "Potency": "inactive"},
      {"smiles": "COCCn1c(=NC(=O)c2cc3ccccc3oc2=O)sc2cc(S(N)(=O)=O)ccc21", "Potency": "inactive"},
      {"smiles": "Cc1cc(=O)c2ccccc2n1CC(=O)NCc1ccccc1", "Potency": "active: 4.61 µM"},
      {"smiles": "O=C(Nc1ccc(N2CCCCCC2)cc1)c1ccccc1Cl", "Potency": "inconclusive: 23.1 µM [cytotoxic, single point]"},
      {"smiles": "COc1ccc(C2C(C#N)=C3NC(=O)c4c(sc5c4CCCCC5)N3C3=C2C(=O)CC(C)(C)C3)cc1", "note": "(configuration not stated)", "Potency": "inconclusive: 11.6 µM [cytotoxic, partial curve, poor fit]"},
      {"smiles": "Cc1ccc(NC(=O)C2CCCN(S(=O)(=O)c3cnc[nH]3)C2)c(Br)c1", "note": "(configuration not stated)", "Potency": "inconclusive: 20.6 µM [rising, single point]"},
      {"smiles": "O=C(NC1CCCC1)C(c1ccc(F)cc1)N(Cc1ccc(Cl)cc1)C(=O)CCl", "note": "(configuration not stated)", "Potency": "active: 16.4 µM"},
      {"smiles": "CCCCN(CC)c1ncnc2c1sc1nc(N3CCOCC3)c3c(c12)CCCC3", "Potency": "inconclusive: 23.1 µM [rising, single point]"},
      {"smiles": "CCOC(=O)Nc1ccc2c(CNC(C)c3ccccc3OC)cc(=O)oc2c1", "note": "(configuration not stated)", "Potency": "inactive"},
      {"smiles": "Cc1cccc(N2C(S)=C(C#N)C(=O)NC2c2ccco2)c1", "note": "(configuration not stated)", "Potency": "inconclusive: 29.1 µM [rising, single point]"},
      {"smiles": "COc1cccc(CC2(CO)CCCN(CC3=Cc4cc(OC)ccc4OC3)C2)c1", "note": "(configuration not stated)", "Potency": "inconclusive: 13 µM [cytotoxic, partial curve, poor fit]"},
      {"smiles": "Cc1ccc(-c2csc(C(O)(c3ccccc3)C(F)(F)F)n2)cc1C", "note": "(configuration not stated)", "Potency": "inactive"},
      {"smiles": "CC(=O)Nc1ccc(S(=O)(=O)NCCN2CCNC2=O)cc1Cl", "Potency": "inconclusive: 29.1 µM [rising, single point]"},
      {"smiles": "O=c1nc(-c2ccccc2)c2cc(Cl)ccc2[nH]1", "Potency": "inactive"},
      {"smiles": "CN(Cc1ccccc1)C(=O)c1ccc(NC(=O)Cc2ccc(NC(=O)C3CCN(C(=O)c4ccccc4)CC3)cc2)cc1", "Potency": "inactive"},
      {"smiles": "O=C(COc1ccc(S(=O)(=O)N2CCCC2)cc1)NCCC1=CCCCC1", "Potency": "inconclusive: 9.2 µM [cytotoxic, partial curve]"},
      {"smiles": "COc1ccccc1N1CCN(C(=O)C2CCN(S(=O)(=O)c3ccc(Cl)cc3)CC2)CC1", "Potency": "inactive"},
      {"smiles": "O=C(c1ccco1)[C@@H]1[C@@H]2C(=O)N(c3ccccc3)C(=O)[C@@H]2C2c3ccccc3C=CN21", "note": "(some centres not stated)", "Potency": "inactive"},
      {"smiles": "CCc1nc2ccc(C(=O)Nc3ccc(OC)c(OC)c3)cn2c1N(CC)CCOC", "Potency": "inconclusive: 8.2 µM [cytotoxic, partial curve]"},
      {"smiles": "C[C@@H](OC(=O)c1[nH]cnc1C(=O)NCc1ccc(CNC(=O)OC(C)(C)C)cc1)c1ccccc1", "Potency": "inconclusive: 29.1 µM [cytotoxic, single point]"},
      {"smiles": "O=C(CSc1nc2ccccc2c(=O)n1Cc1ccco1)N1CCCCCC1", "Potency": "active: 18.4 µM"},
      {"smiles": "CC(C)OC(=O)c1c(N)n(CCCN2CCOCC2)c2nc3ccccc3nc12", "Potency": "inactive"},
      {"smiles": "CCc1ccc(N(C(=O)c2csnn2)C(C(=O)NC(C)(C)CC)c2cccnc2)cc1", "note": "(configuration not stated)", "Potency": "inactive"},
      {"smiles": "CC(=O)N1Cc2cc(C(=O)NCC(F)(F)F)nc(-c3cccc(-c4cc5ccccc5o4)c3)c2[C@H]1CCO", "Potency": "inconclusive: 20.6 µM [cytotoxic, single point]"},
      {"smiles": "Cc1ccc(CN2CCN(Cc3ccc(-n4cccn4)cc3)CC2CCO)cc1", "note": "(configuration not stated)", "Potency": "inconclusive: 5.8 µM [cytotoxic, partial curve]"},
      {"smiles": "COc1ccc(NC(=O)C2Cc3c(-c4ccc5c(c4)OCO5)ccnc3O2)cc1OC", "note": "(configuration not stated)", "Potency": "inactive"},
      {"smiles": "COc1ccc(CCNC(=O)CCCN2C(=O)C(c3ccccc3)Oc3cccnc32)cc1OC", "note": "(configuration not stated)", "Potency": "inactive"},
      {"smiles": "CC(C)CCNC(=O)N1CCN(S(=O)(=O)c2ccc3c(ccn3C)c2)CC1", "Potency": "inconclusive: 23.1 µM [cytotoxic, partial curve]"},
      {"smiles": "CC(C)c1ccc(/C=N/n2nnnc2Nc2ccccc2)cc1", "Potency": "inactive"},
      {"smiles": "COc1ccc(N2CCN(C(c3cccs3)C(C)NC(=O)c3ccco3)CC2)cc1", "note": "(configuration not stated)", "Potency": "inconclusive: 9.2 µM [cytotoxic, partial curve, poor fit]"},
      {"smiles": "CC1CCN(S(=O)(=O)c2ccc3c(c2)N(CC(=O)N2CCN(c4ccc(Cl)cc4)CC2)C(=O)CO3)CC1", "Potency": "inconclusive: 5.8 µM [cytotoxic, partial curve]"},
      {"smiles": "COc1ccc(-c2csc(NC(=S)NC(=O)/C=C/c3ccccc3)n2)cc1Br", "Potency": "active: 11.6 µM"},
      {"smiles": "Cc1cc(SCC(=O)c2cccs2)n2nc(C)c(-c3ccccc3)c2n1", "Potency": "active: 20.6 µM"},
      {"smiles": "Cc1cccc(CC(=O)N2CCCC2)c1", "Potency": "inactive"},
      {"smiles": "Cc1cc(NC(=O)CN2CCN(S(=O)(=O)c3ccc(Cl)cc3)CC2)no1", "Potency": "active: 16.4 µM"},
      {"smiles": "Cc1ccc(S(=O)(=O)N2CC=C(c3ccc(F)cc3)CC2)cc1", "Potency": "inconclusive: 29.1 µM [cytotoxic, single point]"},
      {"smiles": "COc1cc(-c2cnc3c(NC=O)cc(-c4ccccc4)cn23)cc(OC)c1OC", "Potency": "inactive"},
      {"smiles": "Cc1ccc2cc(CN(Cc3ccco3)C(=O)c3ccccc3)c(=O)[nH]c2c1C", "Potency": "inconclusive: 23.1 µM [cytotoxic, single point]"},
      {"smiles": "CNc1nc2c(c(=O)n(C)c(=O)n2C)n1Cc1ccccc1", "Potency": "inactive"},
      {"smiles": "Cc1ccc(C)c(N2CCN(C(=O)CCc3nc(-c4cccc(Cl)c4)no3)CC2)c1", "Potency": "inactive"}
    ]}
  ]
}
